These are yes or no findings as the source states them, for the method shown. Some results given as binding are weak or reduced against the parent protein; the word gives no strength. Blank lines part the entries; values can stand above or below the binder they belong to.
Experiments:
[1] = target: T1, human ErbB3-Fc (R&D Systems) (human, UniProt P21860 20-643); assay: ELISA on plate-coated human ErbB3-Fc without NRG, detection biotinylated anti-VpreB and streptavidin HRP (Example 43); axis labelled log [Sab] nM, text speaks of SgGs
T1 construct: Bought protein; also called wild-type ErbB3-Fc fusion; immobilized ErbB3; not shown: Fc part of the bought fusion protein; not described
Description: (§1) The resulting bound SgGs were detected using a biotinylated anti-VpreB, followed by streptavidin HRP colorimetric detection.

Amino acid sequences for entries named in this document (tags omitted). A change or cut given only in a name is not applied to a line headed by its entry.
UniProt P21860: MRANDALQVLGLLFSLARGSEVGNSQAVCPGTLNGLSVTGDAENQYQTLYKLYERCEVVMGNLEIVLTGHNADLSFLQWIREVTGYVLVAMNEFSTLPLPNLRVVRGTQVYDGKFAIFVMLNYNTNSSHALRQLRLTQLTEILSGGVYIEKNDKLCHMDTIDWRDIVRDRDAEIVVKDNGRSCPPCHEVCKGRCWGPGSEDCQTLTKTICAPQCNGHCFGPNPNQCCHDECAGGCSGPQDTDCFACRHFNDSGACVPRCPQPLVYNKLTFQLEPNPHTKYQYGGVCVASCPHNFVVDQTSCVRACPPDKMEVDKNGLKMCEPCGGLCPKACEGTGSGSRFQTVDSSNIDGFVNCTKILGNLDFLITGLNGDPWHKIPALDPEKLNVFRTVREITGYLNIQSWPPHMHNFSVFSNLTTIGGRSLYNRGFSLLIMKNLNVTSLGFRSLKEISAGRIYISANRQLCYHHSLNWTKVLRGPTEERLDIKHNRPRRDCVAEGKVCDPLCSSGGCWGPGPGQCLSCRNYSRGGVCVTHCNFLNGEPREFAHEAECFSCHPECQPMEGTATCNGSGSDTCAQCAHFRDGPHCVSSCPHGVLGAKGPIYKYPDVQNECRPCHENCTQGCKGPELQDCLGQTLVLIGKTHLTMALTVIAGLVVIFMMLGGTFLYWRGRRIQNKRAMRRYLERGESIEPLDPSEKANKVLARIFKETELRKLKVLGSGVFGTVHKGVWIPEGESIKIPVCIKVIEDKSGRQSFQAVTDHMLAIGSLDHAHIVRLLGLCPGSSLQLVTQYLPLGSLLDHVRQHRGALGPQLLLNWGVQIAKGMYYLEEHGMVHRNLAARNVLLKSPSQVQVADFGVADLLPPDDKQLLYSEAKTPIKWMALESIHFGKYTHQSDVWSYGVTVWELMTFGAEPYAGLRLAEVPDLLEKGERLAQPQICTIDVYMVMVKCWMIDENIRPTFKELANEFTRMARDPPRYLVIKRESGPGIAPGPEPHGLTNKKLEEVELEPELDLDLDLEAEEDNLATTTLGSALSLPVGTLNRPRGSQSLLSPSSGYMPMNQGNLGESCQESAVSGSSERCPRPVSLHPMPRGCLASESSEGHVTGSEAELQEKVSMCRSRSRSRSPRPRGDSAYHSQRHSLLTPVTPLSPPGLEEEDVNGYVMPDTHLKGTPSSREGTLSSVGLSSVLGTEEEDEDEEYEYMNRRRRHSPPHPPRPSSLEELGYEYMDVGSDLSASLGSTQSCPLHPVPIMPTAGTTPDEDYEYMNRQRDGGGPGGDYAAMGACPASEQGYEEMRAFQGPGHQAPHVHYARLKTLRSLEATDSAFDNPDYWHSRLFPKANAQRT
UniProt Q61526: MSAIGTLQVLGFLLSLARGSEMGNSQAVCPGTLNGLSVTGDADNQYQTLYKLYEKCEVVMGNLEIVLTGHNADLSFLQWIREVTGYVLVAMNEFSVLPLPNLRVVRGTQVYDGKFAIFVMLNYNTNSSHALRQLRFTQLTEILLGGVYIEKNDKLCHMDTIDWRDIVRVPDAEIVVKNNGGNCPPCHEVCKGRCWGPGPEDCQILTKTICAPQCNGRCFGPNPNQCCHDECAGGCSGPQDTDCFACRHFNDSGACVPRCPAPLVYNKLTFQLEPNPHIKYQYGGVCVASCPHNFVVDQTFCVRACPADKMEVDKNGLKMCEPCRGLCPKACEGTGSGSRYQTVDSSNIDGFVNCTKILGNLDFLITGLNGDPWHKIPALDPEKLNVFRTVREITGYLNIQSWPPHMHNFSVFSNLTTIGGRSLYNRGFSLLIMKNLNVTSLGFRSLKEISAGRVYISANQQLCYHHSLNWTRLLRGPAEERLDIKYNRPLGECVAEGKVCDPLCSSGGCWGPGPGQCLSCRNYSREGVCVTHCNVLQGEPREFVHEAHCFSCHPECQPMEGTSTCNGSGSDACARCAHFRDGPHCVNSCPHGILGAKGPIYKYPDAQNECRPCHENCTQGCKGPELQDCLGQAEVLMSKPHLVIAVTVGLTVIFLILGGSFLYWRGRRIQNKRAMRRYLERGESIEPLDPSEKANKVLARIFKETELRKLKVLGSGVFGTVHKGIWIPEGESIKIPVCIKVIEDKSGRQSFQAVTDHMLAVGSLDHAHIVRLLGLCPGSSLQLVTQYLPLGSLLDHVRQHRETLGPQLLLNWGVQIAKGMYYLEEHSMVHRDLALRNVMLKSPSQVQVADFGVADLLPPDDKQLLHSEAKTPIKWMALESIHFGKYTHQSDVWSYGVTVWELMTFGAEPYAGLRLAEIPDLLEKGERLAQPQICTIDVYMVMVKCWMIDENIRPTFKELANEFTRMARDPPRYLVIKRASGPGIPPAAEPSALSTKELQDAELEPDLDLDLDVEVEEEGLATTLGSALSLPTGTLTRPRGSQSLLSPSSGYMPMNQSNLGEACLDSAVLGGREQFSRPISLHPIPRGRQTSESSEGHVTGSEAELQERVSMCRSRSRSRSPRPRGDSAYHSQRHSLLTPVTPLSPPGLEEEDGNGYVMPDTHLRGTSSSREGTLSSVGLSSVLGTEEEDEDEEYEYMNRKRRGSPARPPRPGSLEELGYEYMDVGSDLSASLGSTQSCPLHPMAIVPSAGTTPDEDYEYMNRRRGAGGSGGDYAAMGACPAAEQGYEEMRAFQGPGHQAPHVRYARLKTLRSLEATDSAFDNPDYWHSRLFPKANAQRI

[2] = target: 2-3-3-3 chimeric ErbB2/ErbB3 Fc fusion (domain I from ErbB2, domains II-IV from ErbB3); assay: ELISA on coated chimera 2-3-3-3, 10 nM SgG, biotinylated anti-VpreB and streptavidin HRP
[3] = target: T1, human ErbB3-Fc (R&D Systems); assay: ELISA on coated wild-type ErbB3-Fc, 10 nM SgG, biotinylated anti-VpreB and streptavidin HRP
[4] = target: human ErbB3 expressed on the surface of cells (BxPC-3 and other human tumor cell lines) (human) (UniProt P21860); assay: flow cytometry on BxPC-3 cells, biotinylated goat anti-human IgG and Alexa488 streptavidin, 7AAD-negative gate
[5] = target: T1, human ErbB3-Fc (R&D Systems); assay: ELISA on ErbB3-Fc, biotinylated SgG detected with streptavidin HRP, curve without competitor
[6] = target: T1, human ErbB3-Fc (R&D Systems); assay: ELISA on plate-coated human ErbB3-Fc, detection biotinylated anti-VpreB and streptavidin HRP (Example 48)
[7] = target: T1, human ErbB3-Fc (R&D Systems); assay: ELISA on plate-coated human ErbB3-Fc with 1.85 nM NRG1-beta 1 extracellular domain added before the SBP (+ NRG), detection biotinylated anti-VpreB (Example 43); axis labelled log [Sab] nM
Description: as §1

[8] = target: human ErbB3 expressed on the surface of cells (BxPC-3 and other human tumor cell lines) (human) (UniProt P21860); assay: flow cytometry on BxPC-3 cells
[9] = target: human ErbB3 expressed on the surface of cells (BxPC-3 and other human tumor cell lines) (human) (UniProt P21860); assay: flow cytometry, SKBR3 cells (Example 52)
[10] = target: T1, human ErbB3-Fc (R&D Systems); assay: ELISA on plate-coated ErbB3-Fc with or without NRG
[11] = target: T1, human ErbB3-Fc (R&D Systems); assay: competition ELISA on human ErbB3-Fc; blocked ligand NRG1-beta 1 extracellular domain at 0.26 ug/ml, detected with biotinylated anti-NRG1-beta 1
[12] = target: T1, human ErbB3-Fc (R&D Systems); assay: competition ELISA on plate-coated ErbB3-Fc, biotinylated test article
[13] = target: human ErbB3 expressed on the surface of cells (BxPC-3 and other human tumor cell lines) (human) (UniProt P21860); assay: flow cytometry, BT474 cells (Example 52)
[14] = target: T1, human ErbB3-Fc (R&D Systems); assay: ELISA on plate-coated human ErbB3-Fc, detection biotinylated anti-VpreB and streptavidin HRP (Example 52)
Description: ELISA plates were coated with human ErbB3-Fc, EGFR-Fc (ErbB1) or ErbB2-Fc. Various concentrations of the indicated anti-ErbB3 SBPs were then allowed to bind to the coated wells. Binding was detected using a biotinylated antibody that specifically recognizes VpreB, followed by streptavidin HRP. Detection used a colorimetric HRP substrate.

[15] = target: 3-3-2-3 chimeric ErbB2/ErbB3 Fc fusion (domain III from ErbB2, domains I, II and IV from ErbB3); assay: ELISA on coated chimera 3-3-2-3, 10 nM SgG, biotinylated anti-VpreB and streptavidin HRP
[16] = target: human ErbB3 expressed on the surface of cells (BxPC-3 and other human tumor cell lines) (human) (UniProt P21860); assay: flow cytometry, MCF-7 cells (Example 52)
[17] = target: T1, human ErbB3-Fc (R&D Systems); assay: ELISA on plate-coated human ErbB3-Fc
[18] = target: T1, human ErbB3-Fc (R&D Systems); assay: ELISA on plate-coated human ErbB3-Fc with 1.85 nM NRG1-beta 1 ECD pre-bound or absent, anti-VpreB detection
[19] = target: 3-3-3-2 chimeric ErbB2/ErbB3 Fc fusion (domain IV from ErbB2, domains I-III from ErbB3); assay: ELISA, 10 nM SgG on plate-coated chimera, against wild-type ErbB3-Fc
[20] = target: 3-3-2-3 chimeric ErbB2/ErbB3 Fc fusion (domain III from ErbB2, domains I, II and IV from ErbB3); assay: as above
[21] = target: 2-3-3-3 chimeric ErbB2/ErbB3 Fc fusion (domain I from ErbB2, domains II-IV from ErbB3); assay: as above
[22] = target: human ErbB3 expressed on the surface of cells (BxPC-3 and other human tumor cell lines) (human) (UniProt P21860); assay: flow cytometry, BxPC-3 cells (Example 52)
[23] = target: human ErbB3 expressed on the surface of cells (BxPC-3 and other human tumor cell lines) (human) (UniProt P21860); assay: flow cytometry, A431 cells (Example 52)
[24] = target: T2, murine ErbB3-Fc (R&D Systems) (mouse, UniProt Q61526 20-641); assay: ELISA on plate-coated murine ErbB3-Fc
T2 construct: Bought protein; also called mouse ErbB3; not shown: Fc part of the bought fusion protein; not described

binding [1]: binds
binding [2]: binds
binding [3]: binds
binding [4]: binds
binding [5]: binds
binding [6]: binds
binding [7]: binds
binding [8]: binds
binding [9]: binds
binding [10]: binds
binding [11]: binds
binding [12]: binds
binding [13]: binds
binding [14]: binds
binding [15]: binds
binding [16]: binds
binding [17]: binds
binding [18]: binds
binding [19]: binds
binding [20]: binds
binding [21]: binds
binding [22]: binds
binding [23]: binds
B1: 2817-C01 surroglobulin (SgG) (other)
VH: EVQLLESGGGLVQPGGSLRLSCAASGFTFSTYAMNWVRQAPGKGLEWVALISSGGSYKYYADSVKGRFTISRDNSKNTLYLQMNSLRAEDTAVYYCAKDNFILLNSWFDYWGQGTLVTVSS
light: QPVLHQPPAMSSALGTTIRLTCTLRNDHDIGVYSVYWYQQRPGHPPRFLLRYFSQSDKSQGPQVPPRFSGSKDVARNRGYLSISELQPEDEAMYYCAMGARSSVTHVFGSGTQLTVLSQPKATPSVTLFPPSSEELQANKATLVCLMNDFYPGILTVTWKADGTPITQGVEMTTPSKQSNNKYAASSYLSLTPEQWRSRRSYSCQVMHEGSTVEKTVAPAECS
notes: also called anti-ErbB3 SgG

binding [1]: binds
binding [2]: binds
binding [3]: binds
binding [24]: binds
binding [4]: binds
binding [5]: binds
binding [6]: binds
binding [7]: binds
binding [8]: binds
binding [10]: binds
binding [11]: binds
binding [12]: binds
binding [14]: binds
binding [15]: binds
binding [17]: binds
binding [18]: binds
binding [19]: binds
binding [20]: binds
binding [21]: binds
B2: 2716-F05 surroglobulin (SgG) (other)
VH: EVQLLESGGGLVQPGGSLRLSCAASGFTFSNYWMHWVRQAPGKGLEWVALISGGGGNTYYADSVKGRFTISRDNSKNTLYLQMNSLRAEDTAVYYCAKDNEKNLYTWLDYWGQGTLVTVSS
light: B1 light
notes: also called anti-ErbB3 SgG

From patent US20140308287A1 (SEA LANE BIOTECHNOLOGIES, published 2014)
